Source: PMC8062582
No constants are given. Whether binding was seen depends on the method and setting. Binding seen in cells or lysates may run through a third protein. Some entries that bind do so weakly or less than the wild type.

By UniProt entry, the sequences of proteins in these tests, tags left out.
UniProt O60260: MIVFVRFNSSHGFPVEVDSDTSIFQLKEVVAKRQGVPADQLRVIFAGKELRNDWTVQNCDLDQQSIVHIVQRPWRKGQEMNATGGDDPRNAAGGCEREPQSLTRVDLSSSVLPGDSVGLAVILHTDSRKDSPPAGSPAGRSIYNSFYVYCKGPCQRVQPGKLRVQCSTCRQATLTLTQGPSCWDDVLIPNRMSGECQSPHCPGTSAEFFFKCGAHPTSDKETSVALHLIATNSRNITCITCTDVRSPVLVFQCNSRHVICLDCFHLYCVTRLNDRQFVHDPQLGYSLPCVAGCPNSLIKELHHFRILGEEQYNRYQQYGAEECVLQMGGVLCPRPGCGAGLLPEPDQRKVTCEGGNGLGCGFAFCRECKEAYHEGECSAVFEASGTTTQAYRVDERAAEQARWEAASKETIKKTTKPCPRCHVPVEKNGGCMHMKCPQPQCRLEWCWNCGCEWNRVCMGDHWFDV

Tests used:
[1] = molecular target: Myc-tagged BRCA1, full length (UniProt P38398); test: co-IP; nuclear extracts of HEK293T cells transduced with Myc-BRCA1 and FLAG-Parkin expression vectors, treated with MG132; anti-Myc antibody 16 h, Protein G magnetic beads; blots for Myc-BRCA1, Ub and FLAG-Parkin
[2] = molecular target: Myc-BRCA1 Δ1-167 (UniProt P38398); test: co-IP; Myc-BRCA1 (full length or deletion mutants) co-expressed with FLAG-Parkin (Wt or deletion mutants); anti-Myc antibody, Protein G magnetic beads; blot for FLAG-Parkin; whole-cell lysate or nuclear extract not told
[3] = molecular target: Myc-tagged BRCA1, full length (UniProt P38398); test: as above

Measured: binding

wild type FLAG-tagged Parkin (from UniProt O60260 1-465) (enzyme)
binds: all assays above
